Data from patent US20150266963A1.
Numbering of substitutions follows the chain as printed. These are yes or no findings as the source states them, for the method shown. Some entries that bind do so weakly or less than the wild type. For some of these results: Tags and fused reporters may be left off the sequences shown. Each block holds one binder with its values, some of them ahead of it.

Key:
[1] = biological target: T1, recombinant human CD70 (Flag-TNC-CD70) (human) (UniProt P32970); assay: inhibition ELISA: Flag-TNC-CD70 captured by anti-Flag mAb, Fab titrated, remaining binding of CD27-Fc detected
T1 sequence (looked up): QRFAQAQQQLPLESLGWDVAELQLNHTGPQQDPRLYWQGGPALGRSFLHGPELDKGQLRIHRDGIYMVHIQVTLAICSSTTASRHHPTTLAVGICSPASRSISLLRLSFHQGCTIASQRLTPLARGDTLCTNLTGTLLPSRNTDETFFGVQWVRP

[2] = biological target: T1, recombinant human CD70 (Flag-TNC-CD70) (human); assay: binding ELISA (captured Flag-TNC-CD70, Fab detected with anti-myc-HRP; black bars) and inhibition ELISA (binding of CD27-Fc, m17; white bars); one sample per Fab, concentration not given
[3] = biological target: T1, recombinant human CD70 (Flag-TNC-CD70) (human); assay: Biacore, CM5 chip highly coated with CD70 (4000 RU); stored samples against a reference sample [panel 40F1 (slope]
[4] = biological target: T1, recombinant human CD70 (Flag-TNC-CD70) (human); assay: Biacore, CM5 chip highly coated with CD70 (4000 RU); stored samples against a reference sample [panel 35G2 (slope]
[5] = biological target: T1, recombinant human CD70 (Flag-TNC-CD70) (human); assay: Biacore, CM5 chip highly coated with CD70 (4000 RU); stored samples against a reference sample [panels 41D12: R0 in Biacore and 41D12 : slope in Biacore]
[6] = biological target: T1, recombinant human CD70 (Flag-TNC-CD70) (human); assay: ELISA; captured Flag-TNC-CD70
[7] = biological target: T2, rhesus CD70 on LCL8664 cells (rhesus) (UniProt F7GPA5); assay: FACS on LCL8664 cells (FIG. 20)
T2 sequence: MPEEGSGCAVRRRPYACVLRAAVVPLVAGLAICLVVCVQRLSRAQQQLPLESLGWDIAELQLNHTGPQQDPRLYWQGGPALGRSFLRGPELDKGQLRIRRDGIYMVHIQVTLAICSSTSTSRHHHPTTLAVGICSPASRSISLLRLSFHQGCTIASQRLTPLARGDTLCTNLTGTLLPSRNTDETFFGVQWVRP

[8] = biological target: T3, heat denatured recombinant CD70 (human) (UniProt P32970); assay: ELISA on coated heat denatured CD70; mAb 10 µg/ml
T3 sequence (looked up): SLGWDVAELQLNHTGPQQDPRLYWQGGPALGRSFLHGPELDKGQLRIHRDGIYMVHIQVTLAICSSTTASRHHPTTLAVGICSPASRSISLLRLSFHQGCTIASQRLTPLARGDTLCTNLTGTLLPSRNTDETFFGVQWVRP

[9] = biological target: T2, rhesus CD70 on LCL8664 cells (rhesus); assay: flow cytometry on rhesus LCL8664 cells, goat anti human IgG1 FITC [panel Rhesus monkey]
[10] = biological target: T3, heat denatured recombinant CD70 (human); assay: ELISA on coated heat denatured recombinant CD70, mAb at 10 µg/ml, anti-human IgG-HRP

B1: 6D5 (Fab, V domains shown)
VH: EVQLVQPGAELRKPGASVKVSCKASGYTFTSYYIDWVRQAPGQGLEWMGRIDPEDGGTKYAQKFQGRVTFTADASTSTAYVELSSLRSEDTAVYYCASRRRDFDYWGQGTQVTVSS
VL: QSALTQPSAVSVSLGQTARITCQGGNARFSSFAWYQQKPGQAPVQVIYYNTNRPSGIPARFSGSSSGGAATLTISGAQAEDEADYYCQSYESGNYVFGGGTTLTVLG
- binding [1]: binds

B9: 19G10 Fab (Fab, V domains shown)
VH: EVQLQESGGGVVQPGGSLRLSCAASGFTFDDYAMSWVRQAPGKGLEWVSSIYMYDSSTYYADSVKGRFTISTDNAKNTVYLQMNSLKSEDTAVYYCAKDINRSYGSSWSHFGPIFSSWGQGTQVTVSS
VL: NFMLTQPSAVSVSLGQTARITCQGGYYTHWYQQKPGQAPVLVIYVNNNRPSGIPERFSGSSSGNTATLTISGAQAEDEAAYYCQSGSSSTIPVFGGGTKLTVLG
- binding [1]: binds

B10: 24B6 Fab (Fab, V domains shown)
VH: B9 VH
VL: B9 VL with N1Q, F2P, M3V, V45I, S61I, A75V, A80D
- binding [1]: binds

B11: 9G2 Fab (Fab, V domains shown)
VH: QVQLVESGGGLMQPGGSLRLSCAASGFTFSSSAMSWVRQAPGKGLEWVSSIYSDSSYTYYADSVKSRFTISTDNAKNTLYLQMNSLKPDDTAVYYCAGSSDYEGSFASWGQGTQVTVSS
VL: QSVVTQPPSLSASPGSSVRLTCTLSSGNSVGNYDISWYQQKAGSPPRYLLYYYSDSVKHQGSGVPSRFSGSSDASANAGLLLISGLQPEDEADYYCSAYKSGSHVFGGGTKLTVLG
- binding [1]: binds

B12: 9G2 chimeric llama-human mAb (antibody, human IgG1, V domains shown)
VH: B11 VH
VL: B11 VL
- binding [8]: binds
- binding [10]: binds

B14: 5F4 Fab (Fab, V domains shown)
VH: EVQVQESGGGLVHPGGSLKLSCAASGFTFDTYAMSWVRQAPGKGLEWVSAISWSGGETFYAESMKGRFTISRNNAKNTLYLQMNSLKSEDTAVYYCARGMGLAEGLTDWGQGTQVTVSS
VL: QAVVTHPPSLSASPGSSVRLTCTLISGDNIGGYDISWYQQKTGSPPRYLLYYYSDSYKHQSSGVPSRFSGSKDASANAGLLLISGLQSEDEADYYCSAYKSGSYKAPVFGGGTHLTVLG
- binding [1]: binds

B15: 5F4 chimeric llama-human mAb (antibody, human IgG1, V domains shown)
VH: B14 VH
VL: B14 VL
- binding [8]: binds
- binding [10]: binds

The remaining lines, values ahead:

- binding [2]: binds
B2: 45A12 (Fab, V domains shown)
VH: EVQLVESGGGLVQPGGSLRLSCAASGFTFSAYYMNWVRQAPGKGLEWISDINNEGYETYYADSVKGRFTISRDNAKNTLTLQMDSLKPEDTARYYCVRDAGYSNHVQIFDSWGQGTQVIVAS
VL: QAVVTQEPSLSVSPGGTVTLTCGLSSGSATSGNYPEWYQQTPGQAPRLIIYNTASRHSGVPGRFSGSISGNKAALTITGAQPEDEADYYCLLYMGGSDFNFVFGGGTKLTVLG

- binding [2]: binds
B3: 45B6 (Fab, V domains shown)
VH: B2 VH
VL: QAVVTQEPSLSVSPGGTVTLTCGLSSGSVTSSNYPDWYQQTPGQAPRLLIYNTNSRHSGVPSRFSGSISGNKAALTITGAQPEDEADYYCALYMGSGSNNVVFGGGTELTVLG

- binding [2]: binds
B4: 45B12 Fab (Fab, V domains shown)
VH: B2 VH
VL: QAVLTQPSSVSVSLGQTAKITCQGGNLGLYGANWYQQNPGRAPILLIYGDNYRPLGIPERFTISKSGGTATLTIDGAQAEDESDYYCQSADYSGNSVFGGGTKLTVLG

- binding [3]: binds
B5: 40F1 mAb (full-length human IgG1, HEK293) (antibody, V domains shown)
VH: EVQLVESGGGLVQPGGSLRLSCAASGFTFSVYYMNWVRQAPGKGLEWVSDINNEGGATYYADSVKGRFTISRDNSKNSLYLQMNSLRAEDTAVYYCARDAGYSNHVPIFDSWGQGTQVTVSS
VL: QAVVTQEPSFSVSPGGTVTLTCGLKSGSVTSDNFPTWYQQTPGQAPRLLIYNTNTRHSGVPDRFSGSILGNKAALTITGAQADDEAEYFCALFISNPSVEFGGGTQLTVLG

- binding [4]: binds
B6: 35G2 mAb (full-length human IgG1, HEK293) (antibody, V domains shown)
VH: B5 VH with A57T, S75A, S78T, R87K, A88P, Q117L
VL: B5 VL with A2T, D32T, T55S, E87D

- binding [5]: binds
B7: 41D12 mAb (full-length human IgG1, HEK293) (antibody, V domains shown)
VH: B5 VH with A57T, Q117L
VL: B5 VL with F10L, S11T

- binding [6]: binds
- binding [7]: binds
- binding [8]: binds
- binding [9]: binds
- binding [10]: binds
B8: ARGX-110 (non-fucosylated 41D12 human IgG1) (antibody, V domains shown)
VH: B5 VH with A57T, Q117L
VL: B5 VL with F10L, S11T

- binding [8]: binds
- binding [10]: binds
B13: 57B6 chimeric llama-human mAb (antibody, human IgG1, V domains shown)
VH: QLQLVESGGGLVQPGGSLRLSCAASGFSFSHYAMSWVRQAPGKGLEWVSGDNTYDGGTRYQDSVKGRFTISRDNGKNTLYLQMNSLKPEDTAVYYCAKDTGRGIMGEYGMDYWGKGTLVTVSS
VL: B3 VL with A2T, S25K, D36A, N99A, V101A, V102M, E108H
